Values from PubChem BioAssay AID1259254 (NCATS, 2017)
Shown is one part, drawn at random, of about 59,000 reagents tested. In the full data, about 1,550 (2.6%) are marked active. 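G2 share is only a proxy for re-replication; each gene was hit by three separate siRNAs, and active genes were retested.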 Unmarked entries are inactive. Reagents against one gene are numbered here. Not all columns of the deposit are shown. Reagent sequences are not shown. The record does not give: the amount of reagent.

Aim: 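Finding genes that stop cells copying their DNA twice in one cycle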 (primary screen)
Cells: human HCT116 colorectal cancer cells
Knock-down reagent: single siRNA against human genes
Time to read-out: 3 days
Measurement: 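Nuclei stained with Hoechst and imaged; cell-cycle phase assigned by DNA content; G2 share scaled per plate, non-targeting siRNA 0%, GMNN siRNA 100%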
Scale: G2 robust z-score and G2 cells, % of GMNN control: higher = more G2 cells, more excess DNA replication
Hit rule: 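Active siRNAs have a G2 robust z of 5 or more median absolute deviations over the median, which in these data means about 38% or higher of GMNN control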

Depletion of ADH1B (alcohol dehydrogenase 1B (class I), beta polypeptide) #1 resulted in: G2 robust z-score -0.532; G2 cells, % of GMNN control -0.778.
ADH1B (alcohol dehydrogenase 1B (class I), beta polypeptide) #2 showed G2 robust z-score 0.215; G2 cells, % of GMNN control 4.48.
ADH1B (alcohol dehydrogenase 1B (class I), beta polypeptide) #3 scored G2 robust z-score -1.33; G2 cells, % of GMNN control -6.4.
SOD2 (superoxide dismutase 2) #1 showed G2 robust z-score -1; G2 cells, % of GMNN control -4.1.
Knock-down of SOD2 (superoxide dismutase 2) #2 gave: G2 robust z-score -0.757; G2 cells, % of GMNN control -2.36.
Knock-down of SOD2 (superoxide dismutase 2) #3 came out at: G2 robust z-score 0.896; G2 cells, % of GMNN control 9.27.

Only “G2 robust z-score”, for 3 of the entries above:
ADH1B (alcohol dehydrogenase 1B (class I), beta polypeptide) #3: -1.33
SOD2 (superoxide dismutase 2) #1: -1
SOD2 (superoxide dismutase 2) #2: -0.757

Additional reagents follow.
Depletion of FZD10-AS1 (FZD10 antisense RNA 1) #1 came out at: G2 robust z-score 0.85; G2 cells, % of GMNN control 8.95.
After knock-down of FZD10-AS1 (FZD10 antisense RNA 1) #2 the results were G2 robust z-score 0.713; G2 cells, % of GMNN control 7.99.
Against FZD10-AS1 (FZD10 antisense RNA 1) #3, the entry reads G2 robust z-score -0.612; G2 cells, % of GMNN control -1.34.
After knock-down of LGMN (legumain) #1 the results were G2 robust z-score -0.0914; G2 cells, % of GMNN control 2.32.
After knock-down of LGMN (legumain) #2, the screen gave G2 robust z-score 5.26 (active); G2 cells, % of GMNN control 40.
With knock-down of LGMN (legumain) #3, the screen gave G2 robust z-score 0.79; G2 cells, % of GMNN control 8.52.
GPR85 (G protein-coupled receptor 85) #1 showed G2 robust z-score -0.408; G2 cells, % of GMNN control 0.0996.
After knock-down of GPR85 (G protein-coupled receptor 85) #2, the screen gave G2 robust z-score 0.0222; G2 cells, % of GMNN control 3.12.
Against GPR85 (G protein-coupled receptor 85) #3, the values are G2 robust z-score -0.641; G2 cells, % of GMNN control -1.54.
For GOLGA6L10 (golgin A6 family like 10) #1 the deposit lists G2 robust z-score -0.134; G2 cells, % of GMNN control 2.02.
GOLGA6L10 (golgin A6 family like 10) #2 scored G2 robust z-score 0.502; G2 cells, % of GMNN control 6.5.
After knock-down of GOLGA6L10 (golgin A6 family like 10) #3 the results were G2 robust z-score 2.04; G2 cells, % of GMNN control 17.3.
